Measured values published in the supplement of paper PMC10849652.
This is one part of the list.

Sequences of proteins named here, by UniProt entry; tags and fusion partners are left off. A change or cut given only in a name is not applied to a line headed by its entry.
UniProt P84090, whole entry, looked up: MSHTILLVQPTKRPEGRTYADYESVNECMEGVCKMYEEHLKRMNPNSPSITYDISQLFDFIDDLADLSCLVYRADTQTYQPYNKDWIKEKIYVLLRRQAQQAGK
UniProt O95834: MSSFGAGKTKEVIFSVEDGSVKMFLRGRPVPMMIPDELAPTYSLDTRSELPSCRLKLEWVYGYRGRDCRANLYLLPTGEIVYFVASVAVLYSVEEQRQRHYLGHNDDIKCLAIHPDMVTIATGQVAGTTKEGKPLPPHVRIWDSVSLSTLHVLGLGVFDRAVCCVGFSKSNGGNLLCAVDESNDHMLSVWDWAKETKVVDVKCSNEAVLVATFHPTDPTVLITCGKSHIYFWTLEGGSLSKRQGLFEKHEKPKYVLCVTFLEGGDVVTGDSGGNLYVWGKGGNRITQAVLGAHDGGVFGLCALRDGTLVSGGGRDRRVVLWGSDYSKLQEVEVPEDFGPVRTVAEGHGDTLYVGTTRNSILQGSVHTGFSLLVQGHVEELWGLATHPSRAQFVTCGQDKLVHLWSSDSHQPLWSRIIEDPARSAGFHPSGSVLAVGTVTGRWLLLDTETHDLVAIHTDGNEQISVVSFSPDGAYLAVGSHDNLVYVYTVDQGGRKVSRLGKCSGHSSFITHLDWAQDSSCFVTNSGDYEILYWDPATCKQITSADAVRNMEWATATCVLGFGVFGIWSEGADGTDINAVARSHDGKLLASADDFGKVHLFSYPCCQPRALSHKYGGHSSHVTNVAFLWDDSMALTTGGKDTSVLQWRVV
UniProt Q9UI10, whole entry, looked up: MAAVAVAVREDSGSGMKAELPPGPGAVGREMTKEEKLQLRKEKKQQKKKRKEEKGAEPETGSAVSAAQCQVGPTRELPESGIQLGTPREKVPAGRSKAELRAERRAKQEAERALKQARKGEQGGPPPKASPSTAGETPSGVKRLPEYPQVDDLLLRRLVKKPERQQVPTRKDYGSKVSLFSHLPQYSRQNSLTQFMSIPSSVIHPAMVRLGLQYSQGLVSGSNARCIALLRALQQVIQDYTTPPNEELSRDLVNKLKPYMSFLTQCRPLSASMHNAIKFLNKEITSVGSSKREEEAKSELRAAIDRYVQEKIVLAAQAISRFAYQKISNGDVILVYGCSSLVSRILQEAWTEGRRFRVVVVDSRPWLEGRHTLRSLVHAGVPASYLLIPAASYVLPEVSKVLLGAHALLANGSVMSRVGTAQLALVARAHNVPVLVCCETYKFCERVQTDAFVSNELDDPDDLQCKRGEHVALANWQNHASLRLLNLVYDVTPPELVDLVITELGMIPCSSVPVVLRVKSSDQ
UniProt P28715: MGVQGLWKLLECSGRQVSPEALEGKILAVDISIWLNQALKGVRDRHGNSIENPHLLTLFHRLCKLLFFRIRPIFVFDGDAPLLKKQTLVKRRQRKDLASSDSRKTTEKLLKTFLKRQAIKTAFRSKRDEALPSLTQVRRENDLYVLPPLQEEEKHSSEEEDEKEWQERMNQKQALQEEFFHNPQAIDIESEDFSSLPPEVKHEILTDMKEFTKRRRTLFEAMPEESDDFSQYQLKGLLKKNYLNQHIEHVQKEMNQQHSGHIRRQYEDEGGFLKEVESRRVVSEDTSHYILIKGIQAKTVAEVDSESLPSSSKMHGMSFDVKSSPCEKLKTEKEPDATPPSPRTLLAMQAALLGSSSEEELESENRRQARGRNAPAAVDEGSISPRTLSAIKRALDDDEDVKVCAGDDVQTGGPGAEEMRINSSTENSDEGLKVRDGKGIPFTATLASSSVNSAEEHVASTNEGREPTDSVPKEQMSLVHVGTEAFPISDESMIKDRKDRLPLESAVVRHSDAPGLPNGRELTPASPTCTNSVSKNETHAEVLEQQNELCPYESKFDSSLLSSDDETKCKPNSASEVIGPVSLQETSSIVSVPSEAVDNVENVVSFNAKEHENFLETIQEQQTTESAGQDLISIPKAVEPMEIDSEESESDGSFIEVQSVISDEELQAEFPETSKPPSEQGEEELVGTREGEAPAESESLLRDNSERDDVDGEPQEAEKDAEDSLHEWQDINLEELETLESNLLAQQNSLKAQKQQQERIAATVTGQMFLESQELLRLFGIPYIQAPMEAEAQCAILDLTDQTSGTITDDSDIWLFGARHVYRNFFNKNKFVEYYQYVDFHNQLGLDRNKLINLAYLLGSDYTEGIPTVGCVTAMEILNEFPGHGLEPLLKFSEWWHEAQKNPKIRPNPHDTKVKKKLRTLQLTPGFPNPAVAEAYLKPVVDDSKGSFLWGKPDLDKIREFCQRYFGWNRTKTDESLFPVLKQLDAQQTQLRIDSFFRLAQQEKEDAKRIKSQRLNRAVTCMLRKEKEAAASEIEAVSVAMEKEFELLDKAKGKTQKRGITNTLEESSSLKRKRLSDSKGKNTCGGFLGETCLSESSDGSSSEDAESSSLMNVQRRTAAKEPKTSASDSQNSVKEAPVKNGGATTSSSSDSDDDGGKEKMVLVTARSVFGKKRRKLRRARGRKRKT
UniProt Q7L775: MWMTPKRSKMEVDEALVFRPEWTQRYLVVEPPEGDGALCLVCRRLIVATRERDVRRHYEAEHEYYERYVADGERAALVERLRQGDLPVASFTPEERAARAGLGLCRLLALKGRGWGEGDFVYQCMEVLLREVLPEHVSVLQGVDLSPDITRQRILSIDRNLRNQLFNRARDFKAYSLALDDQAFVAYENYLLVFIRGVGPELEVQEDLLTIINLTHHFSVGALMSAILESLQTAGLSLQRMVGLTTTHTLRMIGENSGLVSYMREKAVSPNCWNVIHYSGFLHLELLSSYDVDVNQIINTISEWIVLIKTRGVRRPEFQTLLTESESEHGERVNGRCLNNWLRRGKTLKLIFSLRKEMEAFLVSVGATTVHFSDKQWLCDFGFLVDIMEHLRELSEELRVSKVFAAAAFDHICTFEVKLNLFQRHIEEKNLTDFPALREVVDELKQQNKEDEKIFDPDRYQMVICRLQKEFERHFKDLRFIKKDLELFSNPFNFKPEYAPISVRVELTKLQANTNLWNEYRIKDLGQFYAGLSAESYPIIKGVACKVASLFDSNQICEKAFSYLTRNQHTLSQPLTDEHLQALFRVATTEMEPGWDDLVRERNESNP
UniProt Q92979: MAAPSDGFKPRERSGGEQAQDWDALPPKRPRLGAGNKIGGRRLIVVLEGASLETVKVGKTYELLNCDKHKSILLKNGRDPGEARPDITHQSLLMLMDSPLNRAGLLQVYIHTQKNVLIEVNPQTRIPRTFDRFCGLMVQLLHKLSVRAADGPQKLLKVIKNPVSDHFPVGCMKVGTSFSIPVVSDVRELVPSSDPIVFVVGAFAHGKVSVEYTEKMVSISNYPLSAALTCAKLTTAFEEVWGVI
UniProt O75822, whole entry, looked up: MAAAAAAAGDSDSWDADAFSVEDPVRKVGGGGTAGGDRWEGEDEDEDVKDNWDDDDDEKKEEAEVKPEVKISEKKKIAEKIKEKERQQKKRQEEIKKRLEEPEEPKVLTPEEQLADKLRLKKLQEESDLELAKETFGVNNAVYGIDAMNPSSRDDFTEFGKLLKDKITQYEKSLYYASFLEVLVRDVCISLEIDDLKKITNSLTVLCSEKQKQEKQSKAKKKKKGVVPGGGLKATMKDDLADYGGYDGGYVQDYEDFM
UniProt Q0PNE2: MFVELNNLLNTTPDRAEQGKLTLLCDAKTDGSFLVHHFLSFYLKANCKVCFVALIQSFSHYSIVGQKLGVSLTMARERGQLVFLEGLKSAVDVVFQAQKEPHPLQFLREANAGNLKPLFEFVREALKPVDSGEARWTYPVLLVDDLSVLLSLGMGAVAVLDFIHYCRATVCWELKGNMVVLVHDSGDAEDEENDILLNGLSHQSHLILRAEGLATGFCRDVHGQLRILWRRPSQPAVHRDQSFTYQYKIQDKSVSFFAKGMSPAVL
UniProt Q9NPA0: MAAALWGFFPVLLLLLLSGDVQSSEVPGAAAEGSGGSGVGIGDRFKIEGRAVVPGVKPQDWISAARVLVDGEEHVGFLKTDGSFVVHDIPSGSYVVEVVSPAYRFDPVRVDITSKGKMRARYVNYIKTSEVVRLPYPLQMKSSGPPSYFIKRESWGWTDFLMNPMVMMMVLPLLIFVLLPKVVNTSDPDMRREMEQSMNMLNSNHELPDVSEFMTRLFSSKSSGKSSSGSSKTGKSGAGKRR
UniProt Q9HC35: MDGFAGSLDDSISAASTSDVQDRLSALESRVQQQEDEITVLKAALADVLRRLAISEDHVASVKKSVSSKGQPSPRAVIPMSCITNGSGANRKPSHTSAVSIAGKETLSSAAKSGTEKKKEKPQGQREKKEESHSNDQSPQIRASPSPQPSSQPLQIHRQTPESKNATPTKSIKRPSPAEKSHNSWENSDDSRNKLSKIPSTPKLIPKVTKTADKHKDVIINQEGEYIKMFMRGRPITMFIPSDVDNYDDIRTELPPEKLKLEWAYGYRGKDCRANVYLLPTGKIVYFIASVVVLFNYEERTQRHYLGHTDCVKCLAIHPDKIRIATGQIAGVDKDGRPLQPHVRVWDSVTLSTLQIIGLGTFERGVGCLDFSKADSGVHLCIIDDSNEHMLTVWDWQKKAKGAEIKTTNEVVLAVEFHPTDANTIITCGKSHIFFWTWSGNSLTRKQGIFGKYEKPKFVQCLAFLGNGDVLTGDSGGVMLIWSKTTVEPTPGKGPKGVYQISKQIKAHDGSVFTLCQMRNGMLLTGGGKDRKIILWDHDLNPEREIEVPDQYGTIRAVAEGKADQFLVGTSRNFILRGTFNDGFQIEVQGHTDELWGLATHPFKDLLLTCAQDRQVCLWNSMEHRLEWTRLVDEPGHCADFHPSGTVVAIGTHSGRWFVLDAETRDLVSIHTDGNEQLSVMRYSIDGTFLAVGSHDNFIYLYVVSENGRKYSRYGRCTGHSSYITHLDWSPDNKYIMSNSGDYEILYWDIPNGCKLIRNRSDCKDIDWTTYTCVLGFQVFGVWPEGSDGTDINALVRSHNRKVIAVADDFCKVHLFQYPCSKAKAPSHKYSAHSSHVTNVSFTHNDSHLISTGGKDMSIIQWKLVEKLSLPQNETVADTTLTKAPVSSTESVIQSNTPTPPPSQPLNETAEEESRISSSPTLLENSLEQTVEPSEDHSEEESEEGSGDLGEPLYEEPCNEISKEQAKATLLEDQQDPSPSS
UniProt Q9BQ52: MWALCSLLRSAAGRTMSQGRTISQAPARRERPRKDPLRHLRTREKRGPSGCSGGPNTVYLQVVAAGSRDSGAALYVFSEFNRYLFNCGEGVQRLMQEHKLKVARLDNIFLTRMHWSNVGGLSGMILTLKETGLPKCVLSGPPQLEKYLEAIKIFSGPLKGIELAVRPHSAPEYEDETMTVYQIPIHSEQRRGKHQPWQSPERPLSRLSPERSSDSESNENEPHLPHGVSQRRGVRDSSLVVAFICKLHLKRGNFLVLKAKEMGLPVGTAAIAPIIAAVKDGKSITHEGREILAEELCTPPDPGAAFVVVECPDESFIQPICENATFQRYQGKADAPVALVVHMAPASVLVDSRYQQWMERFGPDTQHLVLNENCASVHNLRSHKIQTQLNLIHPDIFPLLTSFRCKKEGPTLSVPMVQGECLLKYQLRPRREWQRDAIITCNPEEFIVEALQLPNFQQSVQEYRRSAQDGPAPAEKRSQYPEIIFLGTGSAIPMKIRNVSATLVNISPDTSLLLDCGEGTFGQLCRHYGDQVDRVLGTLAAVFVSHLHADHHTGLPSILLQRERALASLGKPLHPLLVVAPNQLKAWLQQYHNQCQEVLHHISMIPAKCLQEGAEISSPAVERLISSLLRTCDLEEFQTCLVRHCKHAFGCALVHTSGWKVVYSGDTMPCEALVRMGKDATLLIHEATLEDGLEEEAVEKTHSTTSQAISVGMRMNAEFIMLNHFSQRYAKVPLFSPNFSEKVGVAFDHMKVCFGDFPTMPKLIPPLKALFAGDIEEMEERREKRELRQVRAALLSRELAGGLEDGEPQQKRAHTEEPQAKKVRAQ
UniProt Q15717, whole entry, looked up: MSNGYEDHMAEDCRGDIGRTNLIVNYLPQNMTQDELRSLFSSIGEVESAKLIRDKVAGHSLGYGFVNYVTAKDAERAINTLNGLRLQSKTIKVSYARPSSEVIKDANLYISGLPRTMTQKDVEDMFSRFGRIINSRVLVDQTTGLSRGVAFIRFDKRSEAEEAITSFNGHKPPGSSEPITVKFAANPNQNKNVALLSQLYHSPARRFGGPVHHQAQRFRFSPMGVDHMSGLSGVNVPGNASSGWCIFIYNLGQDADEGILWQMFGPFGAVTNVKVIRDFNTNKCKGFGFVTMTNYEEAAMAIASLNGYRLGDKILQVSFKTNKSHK
UniProt Q9UBQ5, whole entry, looked up: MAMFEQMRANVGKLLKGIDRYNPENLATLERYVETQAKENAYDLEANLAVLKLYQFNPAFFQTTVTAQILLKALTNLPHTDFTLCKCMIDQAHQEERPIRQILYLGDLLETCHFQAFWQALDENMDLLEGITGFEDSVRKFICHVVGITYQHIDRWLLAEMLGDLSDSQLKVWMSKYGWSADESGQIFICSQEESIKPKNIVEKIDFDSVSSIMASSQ

What was measured:
Test in all cases: log2 fold change, soluble protein after heating vs DMSO (PISA); higher = thermal stabilisation; K562 lysate, 10 uM; active = over 0.2 and 3.5 SD of the protein, either way, in both replicates (recomputed)
erlotinib = compound: C#Cc1cccc(Nc2ncnc3cc(OCCOC)c(OCCOC)cc23)c1 [erlotinib]
Outline: (§1)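 Values give the log-two fold change in thermal stability against solvent controls, from duplicates. Crude K562 extract at 1 mg/mL protein, made by dounce homogenisation in PBS pH 7.4 with 1 mM MgCl2, was treated with 10 μM compound for 30 min. After 3 min heating across 48°C-58°C, aliquots were pooled, adjusted to 0.5% NP-40 at 4°C and centrifuged at 21,000xg for 90 min. The supernatant was measured by TMTpro 16plex LC-MS/MS with channel sums equalised.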

[1] = compound: C/C(=N\NC(=O)C1=CC(=CC=C1)S(=O)(=O)N2CCOCC2)/C3=C(C=CC(=C3)Cl)O
Outline: as §1

[2] = compound: C1=CC(=CC=C1C2=NC3=C(N2)C=C(C=C3)C(=O)N)OC4=CC=C(C=C4)Cl
Outline: as §1

[3] = compound: C1=CC2=C(C=CC(=C2)/C=C\3/C(=O)NC(=NCC4=CC=CS4)S3)N=C1
Outline: as §1

[4] = compound: C1=CC2=NC=CN=C2C=C1/C=C/3\C(=O)NC(=O)S3
Outline: as §1

[5] = compound: C1=CC=C(C=C1)C2=NC(=C(N2)C3=CC=NC=C3)C4=CC(=C(C=C4)Cl)O
Outline: as §1

[6] = compound: C1=CC=C2C(=C1)C3=NNC4=CC=CC(=C43)C2=O
Outline: as §1

[7] = compound: C1CCN(C1)C(=O)NC2=CC=CC(=C2)NC3=NC=C(C(=N3)NCCC4=CN=CN4)Br
Outline: as §1

[8] = compound: C1CN(CCC1(CC2=CC=C(C=C2)Cl)N)C3=NC=NC4=C3C=CN4
Outline: as §1

IRAK-1-4 Inhibitor I = compound: C1COCCN1CCN2C3=CC=CC=C3N=C2NC(=O)C4=CC(=CC=C4)[N+](=O)[O-] [IRAK-1-4 Inhibitor I]
Outline: as §1

ibrutinib = compound: C=CC(=O)N1CCC[C@@H](n2nc(-c3ccc(Oc4ccccc4)cc3)c3c(N)ncnc32)C1 [ibrutinib]
Outline: as §1

[9] = compound: CC(=O)c1cnc2ccc(-c3cc(Cl)c(O)c(Cl)c3)nc2c1N[C@H]1CC[C@H](CN(C)C)CC1
Outline: as §1

ralimetinib = compound: CC(C)(C)Cn1c(N)nc2ccc(-c3[nH]c(C(C)(C)C)nc3-c3ccc(F)cc3)nc21 [ralimetinib]
Outline: as §1

[10] = compound: CC(C)(O)CC(=O)NCCn1ccc2ncnc(Nc3ccc(Oc4cccc(C(F)(F)F)c4)c(Cl)c3)c21
Outline: as §1

[11] = compound: CC(C)C1=C2N=C(C=C(N2N=C1)NCC3=CC=CC=C3)NCCCCCCN
Outline: as §1

[12] = compound: CC1=C(C(CC(=O)N1)C2=CC=C(C=C2)C(F)(F)F)C(=O)NC3=C(C=C4C(=C3)C=NN4)F
Outline: as §1

[13] = compound: CC1=C(C2=C(C=C1)C(=O)C3=CC=CC=C3N2CCCN)C
Outline: as §1

[14] = compound: CC1=C(C=C(C=C1)NC(=O)C2=CC(=CC=C2)C(C)(C)C#N)NC3=CC4=C(C=C3)N=CN(C4=O)C
Outline: as §1

[15] = compound: CC1=C(C=C(C=C1)NC(=O)C2=CC(=CC=C2)N(C)C)NC(=O)C3=CC=C(C=C3)O
Outline: as §1

[16] = compound: CC1=CC=C(C=C1)SC2=C3C=C(SC3=CN=C2)C(=O)N
Outline: as §1

Measured: log2 fold change

ERH (UniProt P84090)
inactive: erlotinib 0.016 | [1] 0.171 | [2] -0.011 | [3] 0.075 | [4] -0.049 | [5] 0.016 | [6] 0.052 | [7] 0.044 | [8] 0.04 | IRAK-1-4 Inhibitor I -0.047 | ibrutinib 0.033 | [9] -0.024 | ralimetinib -0.023 | [10] -0.127 | [11] 0.007 | [12] 0.039 | [13] 0.033 | [14] 0.017 | [15] 0.01 | [16] 0.007

EML2 isoform 3 (UniProt O95834)
inactive: erlotinib -0.011 | [1] 0.023 | [2] 0.005 | [3] 0.008 | [4] 0.001 | [5] 0.018 | [6] 0.028 | [7] -0.038 | [8] -0.019 | IRAK-1-4 Inhibitor I -0.011 | ibrutinib 0.002 | [9] 0.014 | ralimetinib 0.01 | [10] 0.01 | [11] -0.02 | [12] -0.015 | [13] 0.032 | [14] -0.042 | [15] -0.004 | [16] 0.016

EIF2B4 isoform 2 (UniProt Q9UI10)
inactive: erlotinib 0.031 | [1] 0.027 | [2] 0.008 | [3] 0.041 | [4] 0.009 | [5] 0.013 | [6] -0.04 | [7] -0.006 | [8] -0.008 | IRAK-1-4 Inhibitor I 0.03 | ibrutinib 0.011 | [9] 0.011 | ralimetinib 0.009 | [10] -0.005 | [11] -0.036 | [12] -0.004 | [13] -0.036 | [14] 0.001 | [15] -0.005 | [16] 0.04

EIF4G3, A0A0U1RQK7
inactive: erlotinib 0.021 | [1] -0.055 | [2] 0.004 | [3] 0.035 | [4] -0.019 | [5] -0.005 | [6] -0.036 | [7] 0.002 | [8] -0.002 | IRAK-1-4 Inhibitor I 0.022 | ibrutinib -0.007 | [9] -0.002 | ralimetinib -0.017 | [10] -0.003 | [11] 0.007 | [12] -0.012 | [13] 0.021 | [14] -0.011 | [15] -0.004 | [16] -0.006

ERCC5 (UniProt P28715)
inactive: erlotinib 0.025 | [1] -0.022 | [2] 0.042 | [3] 0.023 | [4] -0.104 | [5] 0.007 | [6] -0.037 | [7] -0.061 | [8] 0.008 | IRAK-1-4 Inhibitor I 0.022 | ibrutinib 0.038 | [9] -0.01 | ralimetinib 0 | [10] 0 | [11] 0.001 | [12] 0.079 | [13] -0.028 | [14] -0.061 | [15] 0.028 | [16] -0.006

EPM2AIP1 (UniProt Q7L775)
inactive: erlotinib 0.001 | [1] 0.103 | [2] 0.024 | [3] 0.013 | [4] 0.059 | [5] 0.008 | [6] -0.065 | [7] 0.004 | [8] -0.02 | IRAK-1-4 Inhibitor I -0.011 | ibrutinib 0.002 | [9] -0.008 | ralimetinib 0.002 | [10] -0.033 | [11] 0.003 | [12] 0.023 | [13] -0.014 | [14] -0.001 | [15] 0 | [16] -0.031

EMG1 (UniProt Q92979)
inactive: erlotinib -0.019 | [1] 0.036 | [2] 0.036 | [3] 0.011 | [4] 0.015 | [5] -0.019 | [6] -0.058 | [7] 0.012 | [8] 0.019 | IRAK-1-4 Inhibitor I 0.002 | ibrutinib 0.039 | [9] -0.009 | ralimetinib 0.035 | [10] -0.051 | [11] -0.053 | [12] -0.012 | [13] 0.021 | [14] 0.041 | [15] -0.029 | [16] 0.058

Reprinted at random: two records from the list, in no set order.
EIF2B4 isoform 2 (UniProt Q9UI10)
inactive: erlotinib 0.031 | [1] 0.027 | [2] 0.008 | [3] 0.041 | [4] 0.009 | [5] 0.013 | [6] -0.04 | [7] -0.006 | [8] -0.008 | IRAK-1-4 Inhibitor I 0.03 | ibrutinib 0.011 | [9] 0.011 | ralimetinib 0.009 | [10] -0.005 | [11] -0.036 | [12] -0.004 | [13] -0.036 | [14] 0.001 | [15] -0.005 | [16] 0.04

ERCC5 (UniProt P28715)
inactive: erlotinib 0.025 | [1] -0.022 | [2] 0.042 | [3] 0.023 | [4] -0.104 | [5] 0.007 | [6] -0.037 | [7] -0.061 | [8] 0.008 | IRAK-1-4 Inhibitor I 0.022 | ibrutinib 0.038 | [9] -0.01 | ralimetinib 0 | [10] 0 | [11] 0.001 | [12] 0.079 | [13] -0.028 | [14] -0.061 | [15] 0.028 | [16] -0.006

Following part

EIF3J (UniProt O75822)
inactive: erlotinib 0.003 | [1] -0.001 | [2] 0.034 | [3] -0.014 | [4] -0.01 | [5] 0.018 | [6] 0.005 | [7] -0.014 | [8] 0.003 | IRAK-1-4 Inhibitor I 0.008 | ibrutinib -0.04 | [9] -0.012 | ralimetinib -0.032 | [10] -0.006 | [11] -0.012 | [12] -0.026 | [13] 0.004 | [14] 0.009 | [15] 0.022 | [16] -0.003

ELP6 (UniProt Q0PNE2)
inactive: erlotinib 0.015 | [1] -0.093 | [2] -0.002 | [3] -0.024 | [4] -0.011 | [5] 0.005 | [6] -0.008 | [7] 0.005 | [8] 0.034 | IRAK-1-4 Inhibitor I 0.019 | ibrutinib 0.014 | [9] -0.018 | ralimetinib -0.016 | [10] -0.019 | [11] 0.001 | [12] 0.002 | [13] -0.01 | [14] 0.003 | [15] -0.022 | [16] -0.045

EMC7 (UniProt Q9NPA0)
inactive: erlotinib 0.023 | [1] -0.011 | [2] -0.009 | [3] -0.02 | [4] -0.044 | [5] -0.011 | [6] -0.052 | [7] -0.002 | [8] 0.011 | IRAK-1-4 Inhibitor I 0.02 | ibrutinib -0.033 | [9] -0.001 | ralimetinib 0.008 | [10] -0.003 | [11] 0.013 | [12] -0.012 | [13] 0.024 | [14] 0.015 | [15] -0.006 | [16] -0.032

ERCC2 (UniProt P18074)
inactive: erlotinib 0.027 | [1] -0.028 | [2] 0.018 | [3] 0.025 | [4] 0.006 | [5] 0 | [6] -0.041 | [7] -0.002 | [8] -0.031 | IRAK-1-4 Inhibitor I 0.008 | ibrutinib -0.026 | [9] -0.02 | ralimetinib 0.077 | [10] -0.015 | [11] 0.002 | [12] -0.048 | [13] -0.016 | [14] -0.019 | [15] 0.031 | [16] 0.002

EML4 (UniProt Q9HC35)
inactive: erlotinib -0.001 | [1] 0.033 | [2] -0.017 | [3] -0.008 | [4] -0.016 | [5] -0.01 | [6] -0.012 | [7] 0.009 | [8] 0.012 | IRAK-1-4 Inhibitor I 0.006 | ibrutinib 0.007 | [9] -0.007 | ralimetinib 0.037 | [10] -0.001 | [11] 0.001 | [12] -0.024 | [13] 0.015 | [14] 0.024 | [15] 0.001 | [16] 0.002

EPB41, A0A2R8Y6D0
inactive: erlotinib 0.134 | [1] 0.064 | [2] -0.187 | [3] -0.012 | [4] -0.004 | [5] 0.066 | [6] -0.004 | [7] -0.042 | [8] 0.054 | IRAK-1-4 Inhibitor I -0.071 | ibrutinib 0.04 | [9] 0.007 | ralimetinib 0.171 | [10] 0.094 | [11] -0.061 | [12] -0.012 | [13] 0 | [14] -0.065 | [15] 0.078 | [16] -0.02

ELAC2 (UniProt Q9BQ52)
inactive: erlotinib 0.003 | [1] -0.042 | [2] -0.002 | [3] 0.006 | [4] -0.002 | [5] 0.02 | [6] -0.001 | [7] 0.001 | [8] -0.004 | IRAK-1-4 Inhibitor I 0.028 | ibrutinib 0.035 | [9] 0.011 | ralimetinib 0.011 | [10] -0.025 | [11] -0.001 | [12] -0.043 | [13] 0.003 | [14] 0.036 | [15] -0.024 | [16] 0.003

ELAVL1 isoform 2 (UniProt Q15717)
inactive: erlotinib 0.047 | [1] 0.008 | [2] 0.019 | [3] 0.025 | [4] -0.017 | [5] 0.001 | [6] -0.069 | [7] -0.027 | [8] 0.036 | IRAK-1-4 Inhibitor I -0.051 | ibrutinib 0.042 | [9] -0.034 | ralimetinib -0.016 | [10] 0.039 | [11] -0.009 | [12] -0.02 | [13] -0.026 | [14] -0.042 | [15] 0.028 | [16] 0.007

EIF3K (UniProt Q9UBQ5)
inactive: erlotinib 0.029 | [1] 0.044 | [2] -0.024 | [3] 0.002 | [4] -0.052 | [5] -0.011 | [6] 0.018 | [7] 0.007 | [8] 0.014 | IRAK-1-4 Inhibitor I 0.017 | ibrutinib 0.004 | [9] -0.005 | ralimetinib -0.007 | [10] -0.017 | [11] -0.008 | [12] 0.016 | [13] 0.023 | [14] 0.012 | [15] 0.002 | [16] 0.031
